Literature values in patent US11452712B2, “Methods and compositions involving (S)-bucindolol” (ARCA BIOPHARMA, INC., priority 2008, dated 2022).
Some entries share one result that the patent states for a list of compounds.

Conditions: heart failure patients; cited from earlier work

Compound | reductions in mortality versus placebo
COc1ccccc1OCCNCC(O)COc1cccc2[nH]c3ccccc3c12 (centres unmarked) [carvedilol] | 34-35%
CC(C)NCC(O)COc1ccc(COCCOC(C)C)cc1 (centres unmarked) [bisoprolol] | 34-35%
